Results of single-concentration screens

The chains behind the UniProt entries cited, without tags or fusion partners.
UniProt I6X8D2, whole entry: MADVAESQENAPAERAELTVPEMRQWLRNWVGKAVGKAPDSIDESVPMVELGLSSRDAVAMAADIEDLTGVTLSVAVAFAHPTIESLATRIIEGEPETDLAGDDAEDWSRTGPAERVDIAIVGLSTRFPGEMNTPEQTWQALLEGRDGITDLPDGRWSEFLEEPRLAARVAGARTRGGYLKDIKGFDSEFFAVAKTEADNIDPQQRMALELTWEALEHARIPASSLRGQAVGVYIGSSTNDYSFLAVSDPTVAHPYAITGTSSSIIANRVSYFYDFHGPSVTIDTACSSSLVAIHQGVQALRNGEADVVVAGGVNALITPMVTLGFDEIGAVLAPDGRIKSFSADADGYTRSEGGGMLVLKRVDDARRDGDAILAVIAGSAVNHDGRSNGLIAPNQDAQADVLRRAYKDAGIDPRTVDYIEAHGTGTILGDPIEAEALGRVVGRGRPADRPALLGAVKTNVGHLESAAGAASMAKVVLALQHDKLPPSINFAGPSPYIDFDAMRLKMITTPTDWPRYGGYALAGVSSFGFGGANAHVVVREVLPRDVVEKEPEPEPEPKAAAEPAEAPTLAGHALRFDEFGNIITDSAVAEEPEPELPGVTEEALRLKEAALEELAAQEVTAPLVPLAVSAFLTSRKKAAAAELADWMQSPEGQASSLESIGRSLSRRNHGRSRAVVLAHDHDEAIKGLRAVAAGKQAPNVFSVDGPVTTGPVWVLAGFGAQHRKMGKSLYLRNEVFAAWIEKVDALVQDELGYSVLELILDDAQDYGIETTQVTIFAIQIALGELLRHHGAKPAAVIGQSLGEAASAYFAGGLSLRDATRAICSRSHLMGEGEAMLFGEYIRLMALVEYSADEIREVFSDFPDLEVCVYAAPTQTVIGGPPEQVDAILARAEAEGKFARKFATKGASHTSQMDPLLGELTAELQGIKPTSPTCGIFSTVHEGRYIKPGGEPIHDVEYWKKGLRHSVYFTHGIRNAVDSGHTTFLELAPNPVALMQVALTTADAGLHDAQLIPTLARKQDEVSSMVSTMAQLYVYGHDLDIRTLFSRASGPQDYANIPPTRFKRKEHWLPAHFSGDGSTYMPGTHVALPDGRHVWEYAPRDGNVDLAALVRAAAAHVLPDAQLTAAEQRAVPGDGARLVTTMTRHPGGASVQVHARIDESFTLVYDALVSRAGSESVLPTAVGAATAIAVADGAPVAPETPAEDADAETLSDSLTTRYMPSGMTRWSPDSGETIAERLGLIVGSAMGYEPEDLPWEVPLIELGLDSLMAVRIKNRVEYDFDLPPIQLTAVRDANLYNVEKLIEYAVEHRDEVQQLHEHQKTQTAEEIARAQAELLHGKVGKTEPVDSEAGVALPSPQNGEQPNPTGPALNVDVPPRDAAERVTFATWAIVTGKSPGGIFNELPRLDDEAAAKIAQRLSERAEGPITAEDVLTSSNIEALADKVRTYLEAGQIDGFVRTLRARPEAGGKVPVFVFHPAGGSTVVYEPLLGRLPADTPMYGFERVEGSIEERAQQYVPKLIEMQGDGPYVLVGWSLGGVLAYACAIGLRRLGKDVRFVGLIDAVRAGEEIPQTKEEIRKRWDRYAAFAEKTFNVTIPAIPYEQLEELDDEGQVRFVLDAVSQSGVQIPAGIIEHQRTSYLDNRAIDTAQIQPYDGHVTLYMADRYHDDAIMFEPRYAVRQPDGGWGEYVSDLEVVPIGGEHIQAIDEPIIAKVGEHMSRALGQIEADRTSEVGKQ

Results are given as percent effect.
The controls that fix the scale are not given in the record; negative values are as filed.
This is an unselected part of the compounds tested.

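Enzyme assay of the thioesterase domain of polyketide synthase 13; the read-out is not stated. Target: Polyketide synthase Pks13, Mycobacterium tuberculosis (UniProt I6X8D2). Tested at 30 µM. The record gives no direction; the compounds picked for IC50 retests had high values, so higher reads as stronger inhibition. About 67,000 compounds were tested under these conditions; 0.46% (about 300) showed 50% or more at least once.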

Compound | percent effect
CC(=O)NCCNC(=O)NCc1ccc(Br)cc1Cl | 0.2374
CCOCc1ncn2c1CN(S(=O)(=O)c1cccs1)CC2 | -27.28
O=C(c1ccsc1)N1CC(c2nc(-c3ccc[nH]c3=O)no2)C1 | 8.803
COc1ccc2c(c1)CCN(CCC(=O)O)CC2 | -19.77
N#Cc1cccnc1Nc1ccc(N2CCC(C(N)=O)CC2)cc1 | 5.251
Fc1ccc(CN2CCC(c3n[nH]c4nccnc34)CC2)cc1F | -30.36
Cc1cc(F)ccc1NC(=O)Cn1cc(C(=O)O)ccc1=O | -31.9
COc1coc(CN2CCCC(CCc3ccc(F)cc3)C2)cc1=O (stereo unspecified) | 9.275
CN(Cc1ccc(F)cc1)[C@@H]1CN(S(=O)(=O)N(C)C)C[C@H]1O | 4.861
COc1ccc(OC)c2c(C)cc(N(C)CCCO)nc12 | 2.429
CNc1ncc(-c2csc(NC(=O)C[C@H]3COCCN3)n2)cn1 | 9.402
COCCCn1ccc(NS(=O)(=O)c2cc(F)c(C)cc2F)n1 | 10.21
COC(=O)c1cc2c(=O)n(C3CCCC3)ccc2nc1C | -8.013
O=C(CN1CC(c2nc(-c3ccco3)no2)C1)NCCc1ccccc1 | 1.181
Cc1nc(CN2CCOC(c3ccc(Cl)cc3)C2)oc1C (stereo unspecified) | -2.188
Cc1ccc(=O)n(CC2(O)CCN(Cc3cnc(C)nc3)CC2)n1 | -32.32
CCS(=O)(=O)CCN1CCN(C2CCC(C(C)C)CC2)CC1 (stereo unspecified) | 1.099
Cc1cc(Br)ccc1NCC(=O)Nc1cc(C(C)(C)C)no1 | -18.43
O=C1[C@@H]2CN(c3ncc(Cl)cc3F)C[C@]2(C(=O)O)CN1CC1CC1 | 5.432
CNC(=O)NC1CC2(CCNCC2)c2ccc(C)cc21 (stereo unspecified) | 0.4439
CC(C)n1c2ccccc2c2c1cc(C(=O)N(C)C)n2C | -33.22
CNc1cc(-c2cc(OC)c(OC)c(OC)c2)ncn1 | 0.3619
O=C(NCc1cc2n(n1)CCCNC2)C1(c2ccc(Cl)cc2)CCC1 | -27.38
CNC(=O)[C@@]12CCC3(CCN(C(=O)C(C)C)CC3)[C@@H]1CN(S(C)(=O)=O)C2 | -10.55
Cc1cc(C2CCCN(CCS(=O)(=O)c3ccccc3)C2)n[nH]1 (stereo unspecified) | 6.099
Cc1nccc(CNC(=O)Nc2cc(C(F)(F)F)c[nH]c2=O)n1 | -5.251
Cc1ccc(CC(=O)N2CCOCC2c2c(C)n[nH]c2C)cc1 (stereo unspecified) | -8.148
Cc1ccc(C(=O)N2CCc3ncnc(-c4cnn(C)c4)c3CC2)cn1 | -7.759
Cc1nn2c(N3CCS(=O)(=O)CC3)cc(-c3ccccc3)nc2c1C | -18.45
COC(=O)C(C)CN(C)S(=O)(=O)c1c(Br)cc2[nH]c(=O)oc2c1Cl (stereo unspecified) | -23.07
COc1ncccc1CNC(=O)c1cc(Cl)ccn1 | -8.686
COc1ccccc1N1CC(NC(=O)c2cc(C(C)C)nn2C)CC1=O (stereo unspecified) | -21.18
CC(C)(C)c1nccc(N2CCCCC2CCNS(C)(=O)=O)n1 (stereo unspecified) | -26.79
CN(CC(N)=O)Cc1csc(-c2ccc(F)cc2)n1 | -9.983
CC(c1ccon1)N(C)C(=O)C1CCN(C(=O)C2CC2)CC1 (stereo unspecified) | 0.04997
CS(=O)(=O)Nc1cccc(CNC(=O)CCc2ccsc2)c1 | -10.93
Cc1nc2n(n1)CC(NCc1nc(-c3cccnc3)no1)CC2 (stereo unspecified) | -18.1
Cc1cc(CNC2CCCN(c3cccnn3)C2)no1 (stereo unspecified) | -3.345
O=C(COc1coc(CN2CCOCC2)cc1=O)Nc1ccccc1F | -8.65
Cc1ccc(-n2nnc(CC(=O)N3CCOCC3)c2C)cc1 | -12.97
COCCN1C(=O)CCC12CCN(C(=O)NC(C)C)CC2 | -9.327
COCCN1C(=O)[C@H]2CC[C@@H]1CN(S(=O)(=O)c1ccc(OC)cc1)C2 | -15.26
O=C(NCCCOCC1CCCO1)c1cccnc1N1CCOCC1 (stereo unspecified) | 6.638
CN(C)S(=O)(=O)N1CC[C@]2(O)CCN(Cc3cccc(F)c3)C[C@@H]2C1 | -33.62
Cc1nc(CN2CCCC(c3nc(C)n4c(C)c(C)sc34)C2)co1 (stereo unspecified) | -8.568
CCC1(CC)Cc2ccccc2-c2nc(NCCO)[nH]c(=O)c21 | -180.4
CC1CCC(NC(=O)CNC2(c3cccc(Br)c3)CCOCC2)CC1 (stereo unspecified) | -15.6
CCCc1noc(CN2CCCC2c2noc(C3CC3)n2)n1 (stereo unspecified) | 7.906
CC(C)c1nnc(CN(C)C(c2ccc(F)cc2)c2cccnc2)o1 (stereo unspecified) | -78.11
Cc1cc(C)cc(C(=O)NCCCNc2ncccn2)c1 | -11.72
CC(=O)NCC(=O)N1CCN(CCN(C)C)c2ncccc2C1 | 10.1
Cn1c(CN2CCCC(Cn3cc(CCO)nn3)C2)cc2ccccc21 (stereo unspecified) | -16.19
O=C(C1COc2ccccc2O1)N1Cc2cnn(CCO)c2C1 (stereo unspecified) | -23.45
O=C(NCCC(O)c1cccs1)c1ccc(Br)o1 (stereo unspecified) | -17.5
CCN1CC2(CCC1=O)CCN(C(=O)c1cn3cccnc3n1)CC2 | 14.78
Cn1cc(CNCCc2cccnc2)c(-c2cccnc2)n1 | -12
CO[C@H]1CN(CC2CCOCC2)[C@@H]2CCCO[C@H]12 | -8.807
Cc1cc2nc(CN(C)c3ccccc3)cc(=O)n2o1 | -15.37
O=C(c1ccc(C2CCCN2)s1)N1CCN(C(=O)N2CCOCC2)CC1 (stereo unspecified) | -16.14
CC(c1ncc(C(C)(C)C)o1)N1CCN(Cc2ccncc2)CC1 (stereo unspecified) | -12.77
Cc1ccccc1OCC(O)CN1CCC(Cn2cccn2)CC1 (stereo unspecified) | -12.62
Cc1ccc(NC(=O)c2cnc(N3CCN(C)CC3)nc2C)cc1C | -6.086
COCC(=O)N1CCC2(CCC2NC(=O)c2ccn(C)c2)CC1 (stereo unspecified) | -10.77
OC(CN1CCCc2ccc(F)cc21)Cn1cccn1 (stereo unspecified) | 1.244
Cc1n[nH]c(C)c1CCNC(=O)Nc1ccc2c(c1)COC2 | -13.22
COc1ccc(-n2cnnc2SCCC#N)cn1 | -14.76
O=C1CSc2ccccc2N1Cc1noc(C2CCCO2)n1 (stereo unspecified) | -11.6
CCC(=O)N1CCC(NC2CCCC2)C1 (stereo unspecified) | -17.92
CCN1C[C@H]2[C@@H](C1)N(c1ncc(F)cn1)CC[C@H]2OC | 5.164
CC(C)c1nc(CN(C)Cc2ccc(O)c(Cl)c2)cs1 | -11.78
CCc1nc(Cn2c(=O)c3c(C(F)(F)F)cc(C)nc3n2C)no1 | 9.674
Cc1ccc(NC(=O)NCCc2cnn(C)c2)c(N(C)C)n1 | -0.942
CCc1ccc(C(=O)N2CCCC2c2nnc3n2CCCCC3)o1 (stereo unspecified) | -11.84
Cc1ccc(CN2CCN(c3ncccc3C(N)=O)CC2CCO)cc1 (stereo unspecified) | -9.193
CCCN(CCc1cccc(F)c1)c1ccc2nnnn2n1 | 14.76
Cc1ccc2c(c1)[C@@H](CC(=O)N1CCN(C)CC1)CCO2 | -0.8525
Cc1n[nH]cc1CNCC(O)c1ccc(F)c(F)c1 (stereo unspecified) | 7.87
Cc1ccc(N(CC(=O)c2ccc(Br)cc2)C2=NCCCCC2)cc1 | -32.04
CC1CCN(C(=O)c2cnn3c(-c4ccco4)ccnc23)CC1 | 9.969
O=C(c1cccnc1)N1CCC2(CC1)CNc1c(F)cccc12 | 8.676
CN(C)Cc1nnc2n1CCN(Cc1ccccn1)CC2 | -12.78
CC(CCc1ccccc1)NC(=O)CNCCCN(C)C (stereo unspecified) | -8.439
COCCN(Cc1ccco1)Cc1nc(-c2ccsc2)no1 | 19.4
CC(=O)N(C)C1CCN(C(=O)c2cccc3c2ccn3C)CC1 | -16.19
Cc1ccc(C2(O)CCN(C(=O)c3cccc(S(C)(=O)=O)c3)CC2)nc1 | -0.9632
Cc1nnc2n1CCN(CC(=O)Nc1cc(C(C)C)no1)C2 | -21.57
Cn1cc(C2CCCN2C(=O)CCn2ccc3ccccc32)cn1 (stereo unspecified) | -50.69
Fc1ccc(CCC2CCCN(Cc3c[nH]cn3)C2)c(F)c1 (stereo unspecified) | -19.29
CN(Cc1nnc(C2CC2)n1C)C1CCN(CCc2ccncc2)C1 (stereo unspecified) | 5.842

For reference, 5 entries once more:

- Cc1ccc(CC(=O)N2CCOCC2c2c(C)n[nH]c2C)cc1 (stereo unspecified) | -8.148%
- Cc1n[nH]cc1CNCC(O)c1ccc(F)c(F)c1 (stereo unspecified) | 7.87%
- Cc1nnc2n1CCN(CC(=O)Nc1cc(C(C)C)no1)C2 | -21.57%
- N#Cc1cccnc1Nc1ccc(N2CCC(C(N)=O)CC2)cc1 | 5.251%
- COc1ccccc1N1CC(NC(=O)c2cc(C(C)C)nn2C)CC1=O (stereo unspecified) | -21.18%

Source: ChEMBL document CHEMBL3988442, “University of Dundee, Small-Polar-MMV Screening Library” (2021).